No constants are given. Whether binding was seen depends on the method and setting. Some binding calls cover weakened binding; strength is not graded here.
Columns and labels:
[1] = biological target: SARS-CoV-2 S2 domain (SARS-CoV-2 (WIV02 isolate)) (UniProt P0DTC2); assay: ELISA (FIG. 2)
[2] = biological target: SARS-CoV-2 S2 domain (SARS-CoV-2 (WIV02 isolate)) (UniProt P0DTC2); assay: ELISA

B1: 10-B11-A (antibody, V domains shown)
VH: QVQLQQPGAELVKPGASVKVSCKASGYTFTSYWMHWVKQRPGQGLEWIGRIHPSDSDTNYYQKFKGKATLSVDKSSSTAYMQLSSLTSEDSAVYYCAIPLYSYDNSGGYYPMDYWGQGTSVTVSS
VL: DIVMTQSQKFMSTSVGDRVTITCKASQNVRTAVAWYQQKPGQSPKKLIYLASNRHTGVPDRFTGSGSGTDFTLAISNVQSEDLADYFCLQHWNYPFTFGSGTRLEIK
binding [1]: binds
binding [2]: binds

From patent publication US20220372114A1
